For 1 compound, Log-ratio results are on record in patent publication US8580511B2, “Two-color fluorescent reporter for alternative pre-mRNA splicing” (The Regents of the University of California, priority 2006, dated 2013).

Each structure is given as a SMILES string.

The test system of this test is exon 10 of the human tau gene. The experiment in a line: High-throughput small molecule screen with two-color fluorescent (GFP/RFP) splicing reporter in stable cell line. It counts as cell-based. The conditions noted are these: log2 of RFP/GFP fluorescence, background subtracted, Lowess normalized; enzyme inhibitor library; 16 hours incubation; DMSO control −0.21. An excerpt:
Exon 10 of the human tau gene (SEQ ID NO:9; see also, GenBank Accession No. AF027494) containing short stretches (about 50-100 nucleotides) of each of the flanking introns (i.e., intronic sequences from introns 9 and 10; see, e.g., Wang et al., J. Neurochem., 88:1078-1090 (2004)) was cloned into the EcoRI and BamHI restriction sites of the reporter intron (SEQ ID NO:2), which interrupts the start codon of the GFP open reading frame. The clone was linearized using DraIII and transfected into adherent mammalian cells.
Since the fluorescence of some of the compounds screened could increase the background fluorescence by an order of magnitude, the background was calculated and subtracted for each well. In particular, the background was calculated by measuring the fluorescence of each channel after excitation with shorter wavelengths than the optimal for the reporter proteins. This measurement was corrected using data from non-reporter cells before being subtracted from the reporter-expressing cells as background. […]
The two-color fluorescent reporter constructs described above carrying exon 10 of the human tau gene were used in high-throughput small molecule screens of a library of enzyme inhibitors (FIG. 6A) and a library of FDA approved drugs (FIG. 6B). […] The fluorescence intensities were measured using an Analyst AD plate reader. […]

With `COC(=O)C1=C(C)NC(C)=C(C(=O)OC)C1c1ccccc1[N+](=O)[O-]` [NIFEDIPINE], the Log-ratio is listed as 0.64.
